Measured values: publication PMC9440122
These are yes or no findings as the source states them, for the method shown. In cells and extracts the contact can be indirect. Some binding calls cover weakened binding; strength is not graded here.

Protein sequences, listed by entry. Tags and fused reporters are not part of them.
UniProt Q80TR8: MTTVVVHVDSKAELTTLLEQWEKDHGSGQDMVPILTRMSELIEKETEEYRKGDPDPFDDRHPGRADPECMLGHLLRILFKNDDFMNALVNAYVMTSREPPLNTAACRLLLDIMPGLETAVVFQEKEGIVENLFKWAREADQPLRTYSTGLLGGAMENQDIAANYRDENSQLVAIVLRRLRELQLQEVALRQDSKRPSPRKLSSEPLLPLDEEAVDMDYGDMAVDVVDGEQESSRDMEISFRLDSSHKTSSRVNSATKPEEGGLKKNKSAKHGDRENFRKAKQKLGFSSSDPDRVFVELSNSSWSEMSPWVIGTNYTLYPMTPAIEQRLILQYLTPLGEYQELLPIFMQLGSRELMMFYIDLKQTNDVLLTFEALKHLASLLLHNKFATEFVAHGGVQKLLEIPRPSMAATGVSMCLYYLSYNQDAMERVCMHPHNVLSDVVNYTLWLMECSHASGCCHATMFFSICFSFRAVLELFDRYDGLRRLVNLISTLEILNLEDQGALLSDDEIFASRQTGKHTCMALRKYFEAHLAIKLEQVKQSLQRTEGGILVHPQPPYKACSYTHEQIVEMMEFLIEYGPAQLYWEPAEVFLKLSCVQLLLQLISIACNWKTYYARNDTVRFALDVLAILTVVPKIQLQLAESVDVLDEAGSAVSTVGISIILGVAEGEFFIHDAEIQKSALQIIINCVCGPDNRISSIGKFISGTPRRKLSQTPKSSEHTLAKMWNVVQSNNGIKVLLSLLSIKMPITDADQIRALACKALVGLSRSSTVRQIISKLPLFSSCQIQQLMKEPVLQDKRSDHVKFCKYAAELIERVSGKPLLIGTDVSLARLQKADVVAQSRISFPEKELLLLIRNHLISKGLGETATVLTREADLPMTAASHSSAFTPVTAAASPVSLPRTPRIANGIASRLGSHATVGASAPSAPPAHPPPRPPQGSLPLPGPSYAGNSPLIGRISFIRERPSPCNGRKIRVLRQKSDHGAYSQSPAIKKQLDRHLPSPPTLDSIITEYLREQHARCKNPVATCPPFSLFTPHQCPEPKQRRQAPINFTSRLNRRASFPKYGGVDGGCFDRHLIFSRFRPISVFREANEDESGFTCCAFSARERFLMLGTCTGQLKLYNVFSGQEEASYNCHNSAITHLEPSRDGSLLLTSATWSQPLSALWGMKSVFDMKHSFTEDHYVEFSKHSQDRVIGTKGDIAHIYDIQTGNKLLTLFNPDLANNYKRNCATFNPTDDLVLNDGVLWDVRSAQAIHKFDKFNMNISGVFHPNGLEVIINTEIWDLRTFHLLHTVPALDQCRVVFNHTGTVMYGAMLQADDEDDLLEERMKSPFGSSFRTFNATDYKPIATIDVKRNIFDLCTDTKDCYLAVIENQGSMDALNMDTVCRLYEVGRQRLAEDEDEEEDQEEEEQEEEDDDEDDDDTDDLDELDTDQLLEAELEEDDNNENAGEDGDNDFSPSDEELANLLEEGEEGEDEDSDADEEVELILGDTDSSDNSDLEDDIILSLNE
UniProt Q8NFU7: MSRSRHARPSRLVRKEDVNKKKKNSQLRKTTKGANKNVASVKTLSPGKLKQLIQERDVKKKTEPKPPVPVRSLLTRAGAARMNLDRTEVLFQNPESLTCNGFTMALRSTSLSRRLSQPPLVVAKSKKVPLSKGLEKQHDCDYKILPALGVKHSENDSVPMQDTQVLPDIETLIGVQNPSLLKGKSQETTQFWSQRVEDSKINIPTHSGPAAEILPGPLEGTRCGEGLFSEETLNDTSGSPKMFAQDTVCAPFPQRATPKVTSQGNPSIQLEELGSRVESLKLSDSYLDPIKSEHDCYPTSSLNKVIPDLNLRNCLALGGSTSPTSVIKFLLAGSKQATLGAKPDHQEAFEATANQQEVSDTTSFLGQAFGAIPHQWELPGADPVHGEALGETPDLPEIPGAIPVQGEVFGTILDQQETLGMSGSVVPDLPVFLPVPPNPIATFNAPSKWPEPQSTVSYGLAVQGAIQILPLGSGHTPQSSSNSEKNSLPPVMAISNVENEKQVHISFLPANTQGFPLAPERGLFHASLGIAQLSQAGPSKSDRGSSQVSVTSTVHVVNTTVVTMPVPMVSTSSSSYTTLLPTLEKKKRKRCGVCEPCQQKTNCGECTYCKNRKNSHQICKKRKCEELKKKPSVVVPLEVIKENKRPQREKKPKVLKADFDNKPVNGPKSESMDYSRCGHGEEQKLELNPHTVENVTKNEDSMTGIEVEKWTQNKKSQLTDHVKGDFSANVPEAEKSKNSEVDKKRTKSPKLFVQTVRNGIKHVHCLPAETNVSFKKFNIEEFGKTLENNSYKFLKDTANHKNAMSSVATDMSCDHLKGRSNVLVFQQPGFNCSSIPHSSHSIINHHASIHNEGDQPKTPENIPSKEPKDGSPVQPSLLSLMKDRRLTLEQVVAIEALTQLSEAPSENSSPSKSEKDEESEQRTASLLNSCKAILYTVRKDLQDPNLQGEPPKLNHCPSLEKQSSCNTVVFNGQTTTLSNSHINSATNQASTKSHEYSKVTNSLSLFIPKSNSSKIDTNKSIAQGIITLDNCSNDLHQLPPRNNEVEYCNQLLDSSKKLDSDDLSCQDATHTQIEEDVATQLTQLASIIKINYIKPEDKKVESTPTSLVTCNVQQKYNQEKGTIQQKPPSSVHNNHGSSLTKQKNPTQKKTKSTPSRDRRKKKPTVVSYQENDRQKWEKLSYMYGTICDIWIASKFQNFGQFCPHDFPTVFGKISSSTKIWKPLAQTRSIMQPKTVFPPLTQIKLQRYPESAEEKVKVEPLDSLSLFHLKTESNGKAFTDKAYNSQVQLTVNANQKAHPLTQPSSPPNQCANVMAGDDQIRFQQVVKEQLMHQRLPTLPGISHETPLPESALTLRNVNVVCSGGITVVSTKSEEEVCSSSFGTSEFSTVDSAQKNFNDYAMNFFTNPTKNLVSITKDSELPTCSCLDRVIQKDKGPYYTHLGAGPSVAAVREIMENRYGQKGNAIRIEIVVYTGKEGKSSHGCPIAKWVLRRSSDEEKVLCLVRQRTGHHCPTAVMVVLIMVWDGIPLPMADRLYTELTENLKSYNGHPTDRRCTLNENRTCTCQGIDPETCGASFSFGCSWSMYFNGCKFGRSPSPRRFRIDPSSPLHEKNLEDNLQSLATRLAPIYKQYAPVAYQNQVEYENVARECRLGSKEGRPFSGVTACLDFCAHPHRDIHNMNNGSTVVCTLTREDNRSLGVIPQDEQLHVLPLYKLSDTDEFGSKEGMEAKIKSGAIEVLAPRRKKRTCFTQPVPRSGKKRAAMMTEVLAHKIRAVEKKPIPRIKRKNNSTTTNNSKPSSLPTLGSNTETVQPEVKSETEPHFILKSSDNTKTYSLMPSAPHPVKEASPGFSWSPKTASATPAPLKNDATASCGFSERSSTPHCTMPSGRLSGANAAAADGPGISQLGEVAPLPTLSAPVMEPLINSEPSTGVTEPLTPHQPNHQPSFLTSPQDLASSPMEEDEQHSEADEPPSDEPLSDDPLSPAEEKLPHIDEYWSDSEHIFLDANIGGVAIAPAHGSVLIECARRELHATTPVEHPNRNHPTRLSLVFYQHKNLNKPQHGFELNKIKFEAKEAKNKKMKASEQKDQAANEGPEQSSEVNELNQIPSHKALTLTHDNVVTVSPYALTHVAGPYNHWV
UniProt Q13620: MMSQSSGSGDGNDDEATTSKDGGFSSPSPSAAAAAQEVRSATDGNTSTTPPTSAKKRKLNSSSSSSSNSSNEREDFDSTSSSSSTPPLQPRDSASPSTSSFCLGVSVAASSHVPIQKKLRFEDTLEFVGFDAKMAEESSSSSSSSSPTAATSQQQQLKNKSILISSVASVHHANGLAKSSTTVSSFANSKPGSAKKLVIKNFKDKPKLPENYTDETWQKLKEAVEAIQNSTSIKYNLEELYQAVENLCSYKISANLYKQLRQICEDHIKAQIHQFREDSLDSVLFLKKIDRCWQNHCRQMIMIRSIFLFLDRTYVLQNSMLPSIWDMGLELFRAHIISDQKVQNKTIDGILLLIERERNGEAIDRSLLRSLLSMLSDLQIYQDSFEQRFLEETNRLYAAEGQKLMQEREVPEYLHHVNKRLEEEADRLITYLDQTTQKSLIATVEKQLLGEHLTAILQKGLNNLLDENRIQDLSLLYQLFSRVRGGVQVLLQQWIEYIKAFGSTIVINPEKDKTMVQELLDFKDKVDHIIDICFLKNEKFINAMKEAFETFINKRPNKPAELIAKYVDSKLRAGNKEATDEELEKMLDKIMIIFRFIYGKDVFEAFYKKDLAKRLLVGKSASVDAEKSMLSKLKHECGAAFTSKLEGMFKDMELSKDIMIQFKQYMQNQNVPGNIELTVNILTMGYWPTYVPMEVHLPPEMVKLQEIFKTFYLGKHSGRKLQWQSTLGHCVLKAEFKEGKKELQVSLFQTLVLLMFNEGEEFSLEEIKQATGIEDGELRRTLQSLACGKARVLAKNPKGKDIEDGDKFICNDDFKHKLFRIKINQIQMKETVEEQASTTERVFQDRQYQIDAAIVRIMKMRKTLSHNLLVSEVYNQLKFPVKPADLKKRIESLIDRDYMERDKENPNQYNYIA

What was measured:
GFP-tagged VprBP (mouse) = GFP-tagged VprBP (mouse) (UniProt Q80TR8); assay: co-IP; HEK293-EBNA cells co-transfected (or prey endogenous); lysate in 20 mM Tris-HCl pH 8, 150 mM NaCl, 0.5 mM EDTA, 0.5% NP-40; GFP-tagged bait held on GFP-binding nanobody (GBP) beads, 4 °C, 90 min; western blot; untreated or DMSO control cells
[1] = molecular target: endogenous Tet1 proteins (TET1/TET1s) (human (endogenous in MCF7, MCF10a)) (UniProt Q8NFU7); assay: co-IP; endogenous proteins, MCF7 cell extract (cells synchronised by double thymidine arrest); protein G agarose beads preincubated with antibody against Tet1/Tet1s; western blot

## endogenous Cul4B (from UniProt Q13620 1-913)
GFP-tagged VprBP (mouse)
  binding: binds
[1]
  binding: binds
